Reference: publication PMC9547917
Results are given in words; binding and its absence hold for the method and conditions named. Some entries that bind do so weakly or less than the wild type. Where a sequence is shown, tags or fusion partners need not be part of it.

Sequences of proteins named here, by UniProt entry; tags and fusion partners are left off.
UniProt Q05397: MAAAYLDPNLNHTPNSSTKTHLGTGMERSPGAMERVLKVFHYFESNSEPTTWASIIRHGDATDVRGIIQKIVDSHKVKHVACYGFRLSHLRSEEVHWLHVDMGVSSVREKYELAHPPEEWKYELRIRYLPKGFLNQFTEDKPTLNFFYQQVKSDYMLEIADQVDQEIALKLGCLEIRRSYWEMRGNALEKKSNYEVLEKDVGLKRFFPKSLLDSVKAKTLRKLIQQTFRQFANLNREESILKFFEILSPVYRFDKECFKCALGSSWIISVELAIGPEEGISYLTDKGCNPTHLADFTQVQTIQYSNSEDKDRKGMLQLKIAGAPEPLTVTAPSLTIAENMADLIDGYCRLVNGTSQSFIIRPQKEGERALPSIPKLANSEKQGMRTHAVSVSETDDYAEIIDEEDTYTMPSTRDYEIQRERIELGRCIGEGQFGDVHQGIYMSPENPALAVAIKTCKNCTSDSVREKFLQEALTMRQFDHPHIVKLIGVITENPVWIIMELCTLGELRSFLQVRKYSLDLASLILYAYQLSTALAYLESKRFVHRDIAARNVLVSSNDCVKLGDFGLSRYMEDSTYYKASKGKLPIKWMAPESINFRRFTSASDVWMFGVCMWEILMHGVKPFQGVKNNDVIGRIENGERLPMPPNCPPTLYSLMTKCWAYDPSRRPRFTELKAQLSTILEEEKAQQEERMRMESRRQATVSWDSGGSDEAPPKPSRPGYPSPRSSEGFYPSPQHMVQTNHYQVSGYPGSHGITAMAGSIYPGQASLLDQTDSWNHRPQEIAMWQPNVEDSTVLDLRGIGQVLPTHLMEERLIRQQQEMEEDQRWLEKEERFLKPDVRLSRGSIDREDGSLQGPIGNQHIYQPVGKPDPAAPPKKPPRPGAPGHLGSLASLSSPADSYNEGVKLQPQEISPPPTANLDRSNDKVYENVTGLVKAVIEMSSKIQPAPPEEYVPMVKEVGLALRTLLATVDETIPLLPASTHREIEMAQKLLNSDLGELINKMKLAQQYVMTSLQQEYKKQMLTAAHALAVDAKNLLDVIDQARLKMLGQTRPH

Target: T1, GST-DUSP22 (not stated (human or mouse cDNA cloned)) (UniProt Q9NRW4)
T1 sequence: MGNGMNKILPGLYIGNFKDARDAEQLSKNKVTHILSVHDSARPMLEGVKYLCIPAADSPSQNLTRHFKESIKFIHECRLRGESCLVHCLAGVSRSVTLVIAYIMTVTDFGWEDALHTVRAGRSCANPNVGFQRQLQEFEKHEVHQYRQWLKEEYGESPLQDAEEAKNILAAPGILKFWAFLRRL
Assay: pull-down; GST-DUSP22 or GST-FAK from E. coli extracts on GST beads (4 °C, 1 h), then incubated 4 h with Flag-tagged FAK or Flag-tagged DUSP22 prepared by IP; eluate blotted with anti-Flag; GST alone as control; both purified

For “Flag-tagged FAK (from UniProt Q05397 1-1052)”, the binding was “binds”.
